The source of these data is patent publication US20070110748A1.

Sequences of proteins named here, by UniProt entry; tags and fusion partners are left off. Residues count along the entry.
UniProt P02751, residues 32-290: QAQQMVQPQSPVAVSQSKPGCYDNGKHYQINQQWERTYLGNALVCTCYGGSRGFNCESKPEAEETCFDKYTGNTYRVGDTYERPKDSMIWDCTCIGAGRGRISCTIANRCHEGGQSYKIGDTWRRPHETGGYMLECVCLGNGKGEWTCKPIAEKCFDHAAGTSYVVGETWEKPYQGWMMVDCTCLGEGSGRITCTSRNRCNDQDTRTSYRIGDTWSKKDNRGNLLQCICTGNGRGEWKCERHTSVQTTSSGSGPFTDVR

The target in this experiment is T1, Fn-binding MSCRAMM on S. aureus strain Cowan cells (Staphylococcus aureus) (UniProt P14738).
T1 sequence: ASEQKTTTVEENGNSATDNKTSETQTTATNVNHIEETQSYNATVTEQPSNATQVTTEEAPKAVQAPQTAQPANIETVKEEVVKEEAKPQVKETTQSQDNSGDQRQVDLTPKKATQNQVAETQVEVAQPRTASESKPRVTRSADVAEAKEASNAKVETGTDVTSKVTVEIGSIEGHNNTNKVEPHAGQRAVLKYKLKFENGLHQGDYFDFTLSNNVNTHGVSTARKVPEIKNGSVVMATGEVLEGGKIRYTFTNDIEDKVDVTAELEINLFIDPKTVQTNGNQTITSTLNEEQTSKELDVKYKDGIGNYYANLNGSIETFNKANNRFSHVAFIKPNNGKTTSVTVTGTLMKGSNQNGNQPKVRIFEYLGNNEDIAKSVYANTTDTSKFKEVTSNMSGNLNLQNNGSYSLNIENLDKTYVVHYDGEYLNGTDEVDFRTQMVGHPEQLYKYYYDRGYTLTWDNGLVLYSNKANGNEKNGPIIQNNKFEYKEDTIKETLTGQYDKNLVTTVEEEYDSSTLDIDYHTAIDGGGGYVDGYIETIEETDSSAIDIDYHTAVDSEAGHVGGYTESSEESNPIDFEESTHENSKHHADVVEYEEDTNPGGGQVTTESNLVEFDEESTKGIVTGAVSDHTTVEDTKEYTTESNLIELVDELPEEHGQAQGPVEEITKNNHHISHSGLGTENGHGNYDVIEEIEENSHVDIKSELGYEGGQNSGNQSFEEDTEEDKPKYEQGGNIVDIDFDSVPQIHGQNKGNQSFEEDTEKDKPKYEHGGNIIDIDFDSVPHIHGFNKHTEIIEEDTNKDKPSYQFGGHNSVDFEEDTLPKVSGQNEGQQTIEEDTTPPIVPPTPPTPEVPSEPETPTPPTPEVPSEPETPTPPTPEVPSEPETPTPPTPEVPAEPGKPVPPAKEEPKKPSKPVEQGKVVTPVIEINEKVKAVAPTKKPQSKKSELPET
In words: 125I-N29 incubated with S. aureus Cowan 1 cells; patient IgG did not inhibit.

These are yes or no findings as the source states them, for the method shown. Some entries that bind do so weakly or less than the wild type.

With “N-terminal Fn fragment (N29) (from UniProt P02751 32-290) (ligand)”, the binding result is “binds”.
